Data on one substance can be found in publication PMC11530599.

Chains of the proteins cited; added tags and fusions are not shown.
UniProt Q9H9Q4: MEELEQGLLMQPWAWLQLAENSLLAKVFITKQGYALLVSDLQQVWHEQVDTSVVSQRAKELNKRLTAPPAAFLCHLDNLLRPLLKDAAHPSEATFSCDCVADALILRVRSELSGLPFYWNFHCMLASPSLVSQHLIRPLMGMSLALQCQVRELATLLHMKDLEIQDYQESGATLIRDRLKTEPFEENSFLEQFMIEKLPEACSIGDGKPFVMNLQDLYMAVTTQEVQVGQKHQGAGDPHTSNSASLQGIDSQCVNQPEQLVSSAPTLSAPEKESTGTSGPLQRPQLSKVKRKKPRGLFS

Test [1] addresses T1, Flag-labeled UHRF1 (Ubiquitin-like with PHD and Ring Finger domains 1) (UniProt Q96T88).
T1 sequence: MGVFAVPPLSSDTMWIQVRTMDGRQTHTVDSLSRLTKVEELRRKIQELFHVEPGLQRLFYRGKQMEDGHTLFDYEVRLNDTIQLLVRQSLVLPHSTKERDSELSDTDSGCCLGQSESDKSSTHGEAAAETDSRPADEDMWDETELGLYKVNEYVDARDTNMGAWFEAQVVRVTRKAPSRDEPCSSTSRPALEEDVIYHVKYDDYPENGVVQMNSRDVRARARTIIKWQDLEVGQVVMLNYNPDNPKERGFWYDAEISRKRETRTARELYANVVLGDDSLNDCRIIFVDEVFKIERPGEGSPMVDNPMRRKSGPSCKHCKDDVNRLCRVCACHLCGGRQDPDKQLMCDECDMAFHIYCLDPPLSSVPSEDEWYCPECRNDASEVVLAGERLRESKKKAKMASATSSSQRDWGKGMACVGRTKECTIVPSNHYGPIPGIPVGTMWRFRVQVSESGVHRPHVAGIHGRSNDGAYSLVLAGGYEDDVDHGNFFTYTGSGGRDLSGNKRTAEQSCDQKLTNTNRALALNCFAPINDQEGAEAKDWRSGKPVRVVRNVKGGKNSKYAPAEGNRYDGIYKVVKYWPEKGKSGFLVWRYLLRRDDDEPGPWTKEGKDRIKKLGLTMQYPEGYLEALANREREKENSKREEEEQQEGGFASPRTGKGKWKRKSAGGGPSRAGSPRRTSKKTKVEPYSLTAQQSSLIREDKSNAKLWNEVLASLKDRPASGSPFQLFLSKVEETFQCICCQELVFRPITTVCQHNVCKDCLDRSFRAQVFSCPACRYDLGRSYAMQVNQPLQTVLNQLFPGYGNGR
Kind of test: co-IP; Flag-XLF or Flag-UHRF1 overexpressed in HeLa cells for 48 h, after DNA damage; whole-cell lysate with BenzoNuclease; IP with anti-Flag antibody, Western blot of the endogenous partner; NP-40 lysis buffer (20 mM Tris-HCl pH 8.0, 137 mM NaCl, 10% glycerol, 1% NP-40), beads at 4 °C for 10 to 12 h. For orientation: Immunoblotting shows a protein as a band on a membrane.

In test [2] the target is T2, endogenous UHRF1 (Ubiquitin-like with PHD and Ring Finger domains 1) (human (endogenous in HeLa)) (UniProt Q96T88).
T2 sequence: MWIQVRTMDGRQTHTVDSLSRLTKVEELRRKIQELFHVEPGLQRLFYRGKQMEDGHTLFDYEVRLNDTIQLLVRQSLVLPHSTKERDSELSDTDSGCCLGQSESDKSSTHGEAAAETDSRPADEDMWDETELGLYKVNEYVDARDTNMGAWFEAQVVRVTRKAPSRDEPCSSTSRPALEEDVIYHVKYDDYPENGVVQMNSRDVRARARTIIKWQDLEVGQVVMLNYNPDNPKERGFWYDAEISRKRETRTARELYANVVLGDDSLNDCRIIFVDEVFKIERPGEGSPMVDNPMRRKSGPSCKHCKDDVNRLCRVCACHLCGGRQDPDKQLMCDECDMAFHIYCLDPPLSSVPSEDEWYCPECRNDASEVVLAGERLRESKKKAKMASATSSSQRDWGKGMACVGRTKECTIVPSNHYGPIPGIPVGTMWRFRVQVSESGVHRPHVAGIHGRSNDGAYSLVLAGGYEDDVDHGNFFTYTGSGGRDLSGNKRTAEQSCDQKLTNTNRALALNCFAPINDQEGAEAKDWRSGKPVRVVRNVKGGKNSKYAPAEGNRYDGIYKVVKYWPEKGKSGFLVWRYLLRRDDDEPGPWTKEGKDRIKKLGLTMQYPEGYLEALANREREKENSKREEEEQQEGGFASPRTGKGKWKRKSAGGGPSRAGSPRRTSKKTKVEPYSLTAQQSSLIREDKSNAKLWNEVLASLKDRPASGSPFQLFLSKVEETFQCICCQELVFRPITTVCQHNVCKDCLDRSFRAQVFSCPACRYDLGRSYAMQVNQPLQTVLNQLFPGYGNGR
Put plainly: co-IP; endogenous proteins, HeLa whole-cell lysate; IP with anti-XLF or anti-UHRF1 antibody, Western blot; also untreated against 10 Gy IR for 30 min followed by 80 μM VP16 for 2 h (IP anti-UHRF1; interaction enhanced after DNA damage); NP-40 lysis buffer, 4 °C.

No constants are given. Whether binding was seen depends on the method and setting. Binding seen in cells or lysates may run through a third protein. Some results given as binding are weak or reduced against the parent protein; the word gives no strength. For some assays here: Where a sequence is shown, tags or fusion partners need not be part of it.

Turning to “endogenous XLF (nonhomologous end joining factor XLF) (from UniProt Q9H9Q4 1-299)”, the binding entry in test [1] and in test [2] was “binds” in each case.
